Values from PubChem BioAssay AID1053209 (Peter MacCallum Cancer Centre, 2014).
This is an unselected part of about 1,580 reagents. 207 of them (13%) count as active. 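Rows are single siRNAs; four siRNAs per gene were tested, a gene counting as confirmed only when at least two agree.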 Reagents against one gene are numbered here. Further read-outs or replicates are left out here.

Test: 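Gene losses that combine with doxorubicin to kill mouse bone cancer cells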 (follow-up of hits)
Cell system: mouse primary osteosarcoma cells
Reagent: single siRNA against mouse genes, 25 nM (text also states 40 nM)
Timing: about 120 h (48 h before drug, then 72 h with drug)
Conditions: doxorubicin 100 nM (about IC30-40), added 48 h after transfection, for 72 h
Measurement: 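ATP-based luminescent viability, with or without doxorubicin, relative to non-targeting control NT1, mean of two replicates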
Reading the numbers: viability with doxorubicin, vs NT1: higher = more viable cells under doxorubicin; viability without drug, vs NT1: higher = more viable cells without drug
Active means: 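Active when doxorubicin viability is at most 0.7 of NT1 and drug-free viability lies between 0.7 and 1.1, class LC dox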

{"target": "Rplp2", "reagent": 1, "combined effect class": "low viability with and without drug", "viability with doxorubicin, vs NT1": 0.36, "viability without drug, vs NT1": 0.36, "call": "inactive"}
{"target": "Rplp2", "reagent": 2, "combined effect class": "low viability with and without drug", "viability with doxorubicin, vs NT1": 0.46, "viability without drug, vs NT1": 0.57, "call": "inactive"}
{"target": "Rplp2", "reagent": 3, "combined effect class": "low viability with and without drug", "viability with doxorubicin, vs NT1": 0.46, "viability without drug, vs NT1": 0.48, "call": "inactive"}
{"target": "Rplp2", "reagent": 4, "combined effect class": "low viability with and without drug", "viability with doxorubicin, vs NT1": 0.38, "viability without drug, vs NT1": 0.43, "call": "inactive"}
{"target": "Psmb7", "reagent": 1, "combined effect class": "low viability with and without drug", "viability with doxorubicin, vs NT1": 0.31, "viability without drug, vs NT1": 0.56, "call": "inactive"}
{"target": "Psmb7", "reagent": 2, "combined effect class": "normal viability with and without drug", "viability with doxorubicin, vs NT1": 0.78, "viability without drug, vs NT1": 0.82, "call": "inactive"}
{"target": "Psmb7", "reagent": 3, "combined effect class": "low viability only with doxorubicin; normal without drug", "viability with doxorubicin, vs NT1": 0.64, "viability without drug, vs NT1": 0.75, "call": "active"}
{"target": "Psmb7", "reagent": 4, "combined effect class": "normal viability with and without drug", "viability with doxorubicin, vs NT1": 0.74, "viability without drug, vs NT1": 0.78, "call": "inactive"}
{"target": "Cdc23", "reagent": 1, "combined effect class": "normal viability with and without drug", "viability with doxorubicin, vs NT1": 0.88, "viability without drug, vs NT1": 0.99, "call": "inactive"}
{"target": "Cdc23", "reagent": 2, "combined effect class": "normal viability with and without drug", "viability with doxorubicin, vs NT1": 1.06, "viability without drug, vs NT1": 1.05, "call": "inactive"}
{"target": "Cdc23", "reagent": 3, "combined effect class": "normal viability with and without drug", "viability with doxorubicin, vs NT1": 1.07, "viability without drug, vs NT1": 1, "call": "inactive"}
{"target": "Cdc23", "reagent": 4, "combined effect class": "low viability only with doxorubicin; normal without drug", "viability with doxorubicin, vs NT1": 0.68, "viability without drug, vs NT1": 0.92, "call": "active"}

An excerpt from above, limited to “viability with doxorubicin, vs NT1”:
Rplp2 #4 = 0.38
Psmb7 #1 = 0.31
